Tests used:
[1] = Photoreceptor characteristics of multilayer electrophotographic photoreceptor, static method (EPA-8300A); conditions: for E1/2 (half decay exposure) / E1/6 / Vr (surface residual potential): 0.2 μW laser light at 780 nm; for E1/2 (half decay exposure): exposure to reduce Vi by half; for E1/6: exposure to reduce Vi to 1/6; for V0 (surface potential): after corona discharge at −6 kv, charge transport layer 8 parts compound, 12 parts Iupilon Z-200; for Vr (surface residual potential): after irradiation for 5 seconds; for L/D (dark decay retention, Vi/V0): dark place for 5 seconds; for V1 (surface potential after dark hold): held in a dark place for 5 seconds
Description: A solution prepared by dissolving 0.375 parts by weight of a polyamide resin “FINE RESIN FR-104” (manufactured by Namariichi Co., Ltd.) in methanol and adjusting the total to 25 parts by weight was applied onto an aluminum plate and dried at 105° C. for 1 hour, to form an underlayer.
To a binder solution obtained by dissolving 15 parts by weight of a butyral resin “S-LEC BH-3” (manufactured by Sekisui Chemical Co., Ltd.) in 750 parts by weight of cyclohexanone, 22.5 parts by weight of phthalocyanine “Fastogen Blue 8120BS” (manufactured by Dainippon Ink and Chemicals, Incorporated) was added, and dispersed by using a vibration mill together with glass beads for 4 days. The dispersion was applied onto the underlayer and dried at 105° C. for 1 hour, to form a charge generation layer.
12 parts by weight of a polycarbonate resin “Iupilon Z-200” (manufactured by Mitsubishi Engineering-Plastics Corporation) as a binder resin and 8 parts by weight of Compound (1-1) obtained in Example 1 were mixed and dissolved in tetrahydrofuran with which the total was adjusted to 100 parts by weight. The solution was applied onto the charge generation layer with a doctor blade, and dried at 80° C. for 2 hours, to form a charge transport layer. A functionally-separated multilayer type electrophotographic photoreceptor was obtained by using the obtained charge generation layer and charge transport layer.
The photoreceptor characteristics of the thus obtained electrophotographic photoreceptor were measured by using an electrostatic recording tester “EPA-8300A” (manufactured by Kawaguchi Electric Works.) by the static method. Specifically, the electrophotographic photoreceptor was charged by performing corona discharge at −6 kv, and the surface potential V0 (Unit: −v) was measured. The electrophotographic photoreceptor was held in a dark place for 5 seconds (surface potential Vi (Unit: −v)) and dark decay retention L/D(Vi/V0 (Unit: %)) was determined. After that, the electrophotographic photoreceptor was irradiated with 0.2 μW laser light at 780 nm to determine the half decay exposure E1/2 (mJ/cm^2), which was the amount of light exposure necessary to reduce the surface potential Vi by half, and the E1/6 (mJ/cm^2), which was the amount of light exposure necessary to reduce the surface potential Vi to ⅙, and then the surface residual potential Vr (Unit: −v) was determined after irradiation for 5 seconds.
Electrophotographic photoreceptors were prepared and the photoreceptor characteristics thereof were measured in the same manner as in Example 11, except that charge transport layers were prepared by using Comparative Compound (3) (manufactured by Takasago International Corporation, “CTC-191”) or Comparative Compound (4) (manufactured by Takasago International Corporation, “CT-4”).

[2] = Charge carrier mobility of charge transport layer, Time-of-Flight method; conditions: 25° C. and 25 V/μm; charge transport layer approx. 18 μm, 15 parts compound and 15 parts polycarbonate resin TS-2020
Description: In 85 parts by weight of tetrahydrofuran, 15 parts by weight of a polycarbonate resin “TS-2020” (manufactured by Teijin Chemicals Ltd.) as a binder resin and 15 parts by weight of Compound (1-1) obtained in Example 1 were mixed and dissolved. The solution was applied onto a sheet, which had been prepared by vapor deposition of aluminum onto a polyethylene phthalate (PET) film, with a doctor blade, followed by drying at 80° C. for 3 hours, to form a charge transport layer (thickness: approximately 18 μm).
A translucent gold electrode was vapor deposited onto the charge transport layer, and the charge carrier mobility was measured. The carrier mobility was measured by the Time-of-Flight method (Hiroaki Tanaka, Yasuhiro Yamaguchi, Masaaki Yokoyama: DENSHI SHASHIN GAKKAISHI (Electrophotography), 29, 366(1990)) using a nitrogen gas laser with a pulsed half width of 0.9 sec and a wavelength of 337 nm as a light source.
In the same manner as in Example 7, charge transport layers were formed by using Compound (1-7) obtained in Example 3, Compound (1-9) obtained in Example 4, and Compound (1-17) obtained in Example 6, and the charge carrier mobility was measured.
In the same manner as in Example 7, charge transport layers were formed by using Comparative Compound (1) or Comparative Compound (2), and the charge carrier mobility was measured.

SMILES | E1/2 (half decay exposure) [1] | E1/6 [1] | V0 (surface potential) [1] | Vr (surface residual potential) [1] | L/D (dark decay retention, Vi/V0) [1] | V1 (surface potential after dark hold) [1] | Charge carrier mobility [2]
Cc1cc(N(Cc2ccccc2)Cc2ccccc2)ccc1/C=N/N(c1ccccc1)c1ccccc1 [Comparative Compound (3), reference compound] | 0.07 mJ/cm^2 | 0.16 mJ/cm^2 | 485 −V | 144 −V | 99% | 479 −V | 
Cc1ccc(N(c2ccc(/C=C/c3ccc(/C=C/C=C(c4ccccc4)c4ccccc4)cc3)cc2)c2ccc(/C=C/c3ccc(/C=C/c4ccc(N(c5ccc(C)cc5)c5ccc(/C=C/c6ccc(/C=C/C=C(c7ccccc7)c7ccccc7)cc6)cc5)cc4)cc3)cc2)cc1 [Compound (1-1)] | 0.05 mJ/cm^2 | 0.13 mJ/cm^2 | 443 −V | 67 −V | 98% | 434 −V | 12.8 × 10^−5 cm^2/Vs
Cc1ccc(N(c2ccc(C)cc2)c2ccc(C=CC=C(c3ccccc3)c3ccccc3)cc2)cc1 [Comparative Compound (4), reference compound] | 0.06 mJ/cm^2 | 0.16 mJ/cm^2 | 489 −V | 123 −V | 99% | 484 −V | 
Cc1ccc(N(c2ccc(/C=C/c3ccc(/C=C/C=C(c4ccccc4)c4ccccc4)cc3)cc2)c2ccc(/C=C/c3ccc(/C=C/c4ccc(N(c5ccc(/C=C/c6ccc(/C=C/C=C(c7ccccc7)c7ccccc7)cc6)cc5)c5ccc(C)cc5C)cc4)cc3)cc2)c(C)c1 [Compound (1-7)] |  |  |  |  |  |  | 10.8 × 10^−5 cm^2/Vs
COc1ccc(N(c2ccc(/C=C/c3ccc(/C=C/C=C(c4ccccc4)c4ccccc4)cc3)cc2)c2ccc(/C=C/c3ccc(/C=C/c4ccc(N(c5ccc(/C=C/c6ccc(/C=C/C=C(c7ccccc7)c7ccccc7)cc6)cc5)c5ccc(OC)cc5)cc4)cc3)cc2)cc1 [Compound (1-9)] | 0.05 mJ/cm^2 | 0.12 mJ/cm^2 | 419 −V | 56 −V | 98% | 410 −V | 16.0 × 10^−5 cm^2/Vs
Cc1ccc(N(c2ccc(C)cc2)c2ccc(C)cc2)cc1 [Comparative Compound (2), reference compound] |  |  |  |  |  |  | 0.7 × 10^−5 cm^2/Vs
Cc1ccc(C(=C/C=C/c2ccc(/C=C/c3ccc(N(c4ccc(/C=C/c5ccc(/C=C/c6ccc(N(c7ccc(/C=C/c8ccc(/C=C/C=C(c9ccc(C)cc9)c9ccc(C)cc9)cc8)cc7)c7ccc(C)cc7C)cc6)cc5)cc4)c4ccc(C)cc4C)cc3)cc2)c2ccc(C)cc2)cc1 [Compound (1-17)] | 0.04 mJ/cm^2 | 0.10 mJ/cm^2 | 423 −V | 50 −V | 98% | 416 −V | 11.8 × 10^−5 cm^2/Vs

— patent US10795272B2, “Triphenylamine derivative, and charge transport material and electrophotographic photoreceptor using the same” (TAKASAGO INTERNATIONAL CORPORATION, priority 2016, dated 2020)
